From patent publication US20160000866A1
No constants are given. Whether binding was seen depends on the method and setting. Some entries that bind do so weakly or less than the wild type.

Chains of the proteins cited; added tags and fusions are not shown. Lines headed by an entry give the natural chain unless they say otherwise; changes in a name come on top.
UniProt Q8BPS4: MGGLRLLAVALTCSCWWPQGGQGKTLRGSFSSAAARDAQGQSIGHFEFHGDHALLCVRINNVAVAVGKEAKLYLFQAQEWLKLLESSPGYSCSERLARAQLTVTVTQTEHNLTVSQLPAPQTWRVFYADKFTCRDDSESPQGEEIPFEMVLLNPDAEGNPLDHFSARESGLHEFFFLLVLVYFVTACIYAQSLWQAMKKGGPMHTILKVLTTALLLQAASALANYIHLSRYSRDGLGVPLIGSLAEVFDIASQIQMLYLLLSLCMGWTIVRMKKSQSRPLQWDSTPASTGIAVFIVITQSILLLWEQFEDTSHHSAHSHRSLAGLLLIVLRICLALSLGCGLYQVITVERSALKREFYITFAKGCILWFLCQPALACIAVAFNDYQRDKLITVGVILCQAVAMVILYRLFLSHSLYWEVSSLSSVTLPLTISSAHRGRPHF
UniProt Q96CG8: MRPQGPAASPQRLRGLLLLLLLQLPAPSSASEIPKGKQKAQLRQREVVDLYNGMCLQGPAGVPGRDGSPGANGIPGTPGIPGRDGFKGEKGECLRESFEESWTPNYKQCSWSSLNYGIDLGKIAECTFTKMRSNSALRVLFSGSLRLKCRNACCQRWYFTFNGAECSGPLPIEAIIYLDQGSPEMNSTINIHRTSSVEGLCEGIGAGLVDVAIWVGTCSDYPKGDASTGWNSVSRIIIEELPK

Experiments:
[1] = target: murine GPR180 with a C terminal myc epitope tag, expressed on transfected CHO-K1 cells (murine) (UniProt Q8BPS4); test: immunofluorescence confocal microscopy, GPR180-myc transfected CHO-K1 cells, 125 ng/ml hCthrc1, 10 min on ice
[2] = target: murine GPR180 with a C terminal myc epitope tag, expressed on transfected CHO-K1 cells (murine) (UniProt Q8BPS4); test: immunostaining, Gpr180-myc transfected CHO-K1 cells
[3] = target: murine GPR180 with a C terminal myc epitope tag, expressed on transfected CHO-K1 cells (murine) (UniProt Q8BPS4); test: immunocytochemistry, GPR180-myc transfected CHO-K1 cells
[4] = target: murine GPR180 with a C terminal myc epitope tag, expressed on transfected CHO-K1 cells (murine) (UniProt Q8BPS4); test: co-localization on GPR180-myc transfected CHO-K1 cells

Measured: binding

untagged hCthrc1 expressed in CHO-K1 cells (human Collagen Triple Helix Repeat Containing 1) (from UniProt Q96CG8 31-243) (ligand)
binds: all assays above
